Experimental data: patent US20190330372A1
Substitutions are numbered along the chain they refer to. Results are given in words; binding and its absence hold for the method and conditions named. Some binding calls cover weakened binding; strength is not graded here.

Sequences of proteins named here, by UniProt entry; tags and fusion partners are left off. A change or cut given only in a name is not applied to a line headed by its entry.
UniProt P03951: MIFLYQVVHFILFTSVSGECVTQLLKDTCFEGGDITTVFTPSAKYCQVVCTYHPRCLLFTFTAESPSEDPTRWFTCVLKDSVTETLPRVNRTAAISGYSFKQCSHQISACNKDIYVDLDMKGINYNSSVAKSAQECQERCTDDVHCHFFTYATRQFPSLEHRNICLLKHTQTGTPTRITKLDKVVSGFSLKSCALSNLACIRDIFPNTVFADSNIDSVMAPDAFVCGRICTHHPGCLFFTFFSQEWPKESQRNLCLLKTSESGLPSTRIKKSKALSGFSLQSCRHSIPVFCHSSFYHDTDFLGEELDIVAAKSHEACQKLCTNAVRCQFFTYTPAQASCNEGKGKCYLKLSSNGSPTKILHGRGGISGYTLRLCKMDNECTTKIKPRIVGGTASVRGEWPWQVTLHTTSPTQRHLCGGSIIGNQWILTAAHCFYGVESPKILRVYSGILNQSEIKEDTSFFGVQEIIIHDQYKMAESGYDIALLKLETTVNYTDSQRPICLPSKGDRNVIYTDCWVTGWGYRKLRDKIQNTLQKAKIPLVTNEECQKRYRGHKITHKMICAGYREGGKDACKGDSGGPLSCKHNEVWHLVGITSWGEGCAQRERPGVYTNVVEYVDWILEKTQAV

B1: NOV1090 (IgG) (antibody, V domains shown)
VH: QVQLLESGGGLVQPGGSLRLSCAASGFTFSTAAMSWVRQAPGKGLEWVSGISGSGSSTYYADSVKGRFTISRDNSKNTLYLQMNSLRAEDTAVYYCARELSYLYSGYYFDYWGQGTLVTVSS
VL: DIVLTQPPSVSGAPGQRVTISCSGSSSNIGSNDVSWYQQLPGTAPKLLIYKNYNRPSGVPDRFSGSKSGTSASLAITGLQAEDEADYYCSAWDQRQFDVVFGGGTKLTVLG
B2: AM1 (IgG) (antibody, V domains shown)
VH: B1 VH with G50T, S52D, G53S, S54W, S56D, S57D, Y59D
VL: B1 VL
B3: AM2 (IgG) (antibody, V domains shown)
VH: B1 VH with G50S, S52E, G53Y, S54Y, G55D, S56T, S57D, Y59H
VL: B1 VL

target: human plasma derived FXIa (human) (UniProt P03951); assay: direct coating ELISA, IgG

| binding | Binder |
| --- | --- |
| binds | B1 |
| binds | B2 |
| binds | B3 |
